Among the data in US20210403547A1 are binding values, retold here.

These are yes or no findings as the source states them, for the method shown. Some binding calls cover weakened binding; strength is not graded here.

In the test the target is Mouse Epigen (mouse (Mus musculus)) (UniProt Q924X1). Kind of test: SPR, 25 C. For orientation: SPR reads the build-up and loss of mass on a sensor chip optically.

B1: Antibody III (antibody, mouse IgG1, kappa, V domains shown)
VH: QVQLQQSGPELVKPGASVKISCKASGYTFTDAYINWVKQRPGQGLEWIGWIWPGPVITYYNPKFKGKATLTVDKSSSTAYMLLSSLTSEDSAFYFCARREVLSPFAYWGQGTLVTVSA
VL: DVLMTQTPLSLPVSLGDQASISCRSSQSIVHSTGNTYLEWYLQKPGQSPKLLIYKVSNRFSGVPDRFSGSGSGTDFTLKISRVEAEDLGVYYCFHGTHVPYTFGGGTKLEIKR
Regarding B1, the binding result is “binds”.
